Values of other authors, collected in patent US20230321008A1, “INHIBITORS OF ACID SPHINGOMYELINASE FOR PREVENTING AND TREATING THE COVID-19 DISEASE” (priority 2020, published 2023).

Target: T1, acid sphingomyelinase (ASM) (Homo sapiens, UniProt P17405)
T1 sequence (P17405 47-631): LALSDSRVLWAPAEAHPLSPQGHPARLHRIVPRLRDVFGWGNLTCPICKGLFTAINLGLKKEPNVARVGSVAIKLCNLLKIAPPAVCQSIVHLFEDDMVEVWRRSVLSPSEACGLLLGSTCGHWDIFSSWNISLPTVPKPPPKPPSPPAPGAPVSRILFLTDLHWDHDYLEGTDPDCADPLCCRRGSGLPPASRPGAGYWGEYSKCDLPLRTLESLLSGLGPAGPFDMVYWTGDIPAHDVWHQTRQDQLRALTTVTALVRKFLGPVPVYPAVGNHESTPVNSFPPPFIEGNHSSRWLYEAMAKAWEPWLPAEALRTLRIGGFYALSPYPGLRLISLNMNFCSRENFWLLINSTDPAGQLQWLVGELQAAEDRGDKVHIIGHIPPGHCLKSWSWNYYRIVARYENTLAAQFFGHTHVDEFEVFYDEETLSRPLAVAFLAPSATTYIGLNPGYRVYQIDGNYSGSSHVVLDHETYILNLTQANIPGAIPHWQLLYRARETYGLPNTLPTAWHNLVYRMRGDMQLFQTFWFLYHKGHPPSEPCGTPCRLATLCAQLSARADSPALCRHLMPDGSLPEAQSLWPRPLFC
Details: cited from earlier work

Structure (SMILES) | In vitro inhibition of acid sphingomyelinase (in words)
CCCCc1oc2ccccc2c1C(=O)c1cc(I)c(OCCN(CC)CC)c(I)c1 [Amiodarone, amiodarone] | in vitro inhibit acid sphingomyelinase with varying degrees
CCOC(=O)N1CCC(=C2c3ccc(Cl)cc3CCc3cccnc32)CC1 [loratadine] | in vitro inhibit acid sphingomyelinase with varying degrees
